In PubChem BioAssay AID493014 (National Center for Advancing Translational Sciences (NCATS), 2011):
The whole screen tested about 340,000 compounds, of which about 170 (0.05%) were called active. The inconclusive results got no clear call from the source; some entries with a clear call stand among them for comparison. Calls come from the whole dose curve; as a rule, active = well fitted inhibition curve with a large enough effect in the signal ratio, with a control signal flat (not every such curve was filed as active); inconclusive = small, poorly fitted or top-dose-only effect, or effect the other way, or a change in a side signal; inactive = flat fitted curve, though single readings scatter; the % refers to the signal ratio. Potencies beside an inconclusive call are fits to weak or partial responses and may not hold up.

Assay: qHTS Assay to Find Inhibitors of Chronic Active B-Cell Receptor Signaling;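 for activity change, negative = inhibition: plate controls were basal doxycycline-induced cells for no effect and cells given 10 µM MG132 for full effect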
Conditions: ABC-DLBCL IkBa-CBG/CBR reporter, luminescence ratio (green luciferase fused to IkBa over red control in TMD8 lymphoma cells), 4 h; activity change, negative = inhibition: at 46.1 µM (top of the series)
Summary of the method: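 Compounds up to 46 uM were incubated four hours with TMD8 cells whose green CBG68 luciferase is fused to IkappaBalpha; red CBR luminescence normalised the signal, and concentration-effect curves were fitted to fusion, red and ratio data.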
Potency is the fitted concentration of half-maximal effect.

Row | SMILES | activity change, negative = inhibition | Potency
1 | CC(Sc1nc(-c2ccccc2)cc(C(F)(F)F)n1)C(=O)Nc1sc2c(c1C(N)=O)CCC2 (centres undefined) | inactive: -1.31% | 
2 | COC(=O)CCC(=O)CN | inconclusive: 2.01% | 
3 | COC(=O)c1ccc2nc(NC(=O)COC(=O)CSc3nc(C)cc(C)n3)sc2c1 | inconclusive: 1.91% | 
4 | CCC1CCC/C1=N\NC(=O)c1ccoc1C (centres undefined) | inconclusive: 370% | 
5 | CC(=O)Nc1ccc(-c2sc(Nc3cccc4ccccc34)n[n+]2-c2ccccc2)cc1 | inactive: 22.2% | 
6 | Cc1ccc(C)c(-c2nn(-c3cc(N4CCN(CCO)CC4)ccc3[N+](=O)[O-])c(=O)c3ccccc23)c1 |  | inconclusive: 35.5 µM [falling, single point]
7 | COc1cc(C2C3C(=O)N(c4ccccc4)C(=O)C3ON2c2ccccc2)cc(OC)c1OC (centres undefined) | inactive: 1.55% | 
8 | O=c1c2ccccc2nc(N/N=C/c2c(O)ccc3ccccc23)n1O |  | inconclusive: 25.9 µM [rising, single point]
9 | CN1/C(=C/C=C(C#N)C#N)C=Cc2ccccc21 | inactive: -2.87% | 
10 | Cc1ccc(CNC(=O)C(Cc2ccccc2)NS(=O)(=O)c2ccc(Br)s2)cc1 (centres undefined) | inconclusive: -7.35% | 
11 | COc1ccc(O)c(C(=O)c2cc(SCC(=O)O)c3nc4sc5c(c4c(=O)n3c2)CCCC5)c1 | inactive: 2.23% | 
12 | C[C@@H]1CCC(=O)N(C[C@@H](C)CSc2ccccc2)CC1 | inactive: 4.97% | 
13 | CC1Sc2ccc(C(=O)OCc3ccccc3Cl)cc2NC1=O (centres undefined) | inconclusive: 6.82% | 
14 | Cc1nn(Cc2ccccc2)c2c1C(c1ccccc1)C(C#N)=C(N)O2 (centres undefined) |  | inconclusive: 18.4 µM [cytotoxic, partial curve]
15 | CC(C)C[C@H]1CN=C(Nc2ccccc2)N1CC1CCC(C)CC1 (some centres undefined) |  | inconclusive: 11.2 µM [falling, partial curve, poor fit]
16 | CCOC(=O)c1nc2ccccc2c(C)c1C | inconclusive: 1.35% | 
17 | O=C(/C=C/c1ccccc1)c1cc(Br)ccc(=O)c1O |  | inconclusive: 16.4 µM [falling, single point]
18 | c1ccc(CNc2ccc3ccccc3n2)nc1 |  | inconclusive: 35.5 µM [falling, single point]
19 | COCCNc1nnc(SC(C)C(=O)Nc2ccc(-c3nc4ccc(C)cc4s3)cc2)s1 (centres undefined) | inconclusive: 12.7% | 
20 | COc1ccc2sc(-c3ccccc3OC)c(-c3ccc(OCCN(C)C)cc3)c2c1 |  | inconclusive: 29.1 µM [falling, single point]
21 | CCCCN(CCCC)C(=S)NC(=O)c1ccccc1Cl | inconclusive: 6.09% | 
22 | COc1ccc(C(=O)C(CCC(CNC(C)(C)C)C(=O)c2ccc(OC)cc2)CNC(C)(C)C)cc1 (centres undefined) |  | inconclusive: 2.31 µM [falling, partial curve]
23 | CC(C)(C)c1ccc(C(=O)CSc2ncn[nH]2)cc1 |  | inconclusive: 20.6 µM [falling, single point]
24 | CCOc1ccc(-c2nnc3ccc(SCC(=O)Nc4nc5ccc(C)cc5s4)nn23)cc1 | inactive: -3.98% | 
25 | O=C(/C=C/c1ccc(Cl)cc1Cl)NCCSCc1ccccc1 | inconclusive: -0.332% | 
26 | CC(=O)CC1(OC(C)=O)C(=O)N(C)c2ccccc21 (centres undefined) |  | inconclusive: 14.1 µM [falling, partial curve]
27 | O=C(Nc1ncccc1O)c1ccc(Oc2ccccc2)cc1 |  | inconclusive: 7.94 µM [falling, partial curve]

Reformatted: entries from further up
Row	SMILES	activity change, negative = inhibition	Potency
7	COc1cc(C2C3C(=O)N(c4ccccc4)C(=O)C3ON2c2ccccc2)cc(OC)c1OC (centres undefined)	inactive: 1.55%	
8	O=c1c2ccccc2nc(N/N=C/c2c(O)ccc3ccccc23)n1O		inconclusive: 25.9 µM [rising, single point]
9	CN1/C(=C/C=C(C#N)C#N)C=Cc2ccccc21	inactive: -2.87%	
10	Cc1ccc(CNC(=O)C(Cc2ccccc2)NS(=O)(=O)c2ccc(Br)s2)cc1 (centres undefined)	inconclusive: -7.35%	
11	COc1ccc(O)c(C(=O)c2cc(SCC(=O)O)c3nc4sc5c(c4c(=O)n3c2)CCCC5)c1	inactive: 2.23%	

Later entries

Row | SMILES | activity change, negative = inhibition | Potency
28 | O=C(O)c1cccc(NS(=O)(=O)c2cccc3cccnc23)c1 | inconclusive: 4.24% | 
29 | O=C(Cc1ccccc1)NNC(=S)Nc1ccc(Cl)cc1 | inconclusive: 8.63% | 
30 | Cc1cc(NC(=O)c2sc3ccccc3c2O)no1 |  | inconclusive: 20 µM [falling, partial curve]
31 | C=CC[C@@H](CC(=O)N(CCO)Cc1ccccc1)C(=O)N[C@H](COC(=O)[C@@H](CC=C)Cc1ccc(F)cc1)C(C)(C)C | inconclusive: -6.79% | 
32 | C=CCn1c(SC2CCOC2=O)nc2sc(C)c(C)c2c1=O (centres undefined) | inconclusive: -1.75% | 
33 | COc1ccc(-c2ccc3c(c2)S(=O)(=O)c2cccc(C(=O)NCc4ccccc4Cl)c2C3=O)cc1OC |  | inconclusive: 18.4 µM [falling, partial curve, poor fit]
34 | O=C(Nc1ccc2c(c1)OCCO2)C1CCCN(S(=O)(=O)c2cccc3nsnc23)C1 (centres undefined) |  | inconclusive: 20.6 µM [falling, partial curve, poor fit]
35 | Cc1ccc(-n2c(Cc3cccc4ccccc34)n[nH]c2=S)c(C)c1 | inconclusive: -4.01% | 
36 | NS(=O)(=O)c1cccc(NC(=O)/C=C/c2cccs2)c1 |  | inconclusive: 22.4 µM [falling, partial curve]
37 | COc1ccc2nc3oc(C(=O)N4CCC(C(N)=O)CC4)cc3cc2c1 |  | inconclusive: 3.98 µM [rising, full curve, poor fit]
38 | CC1Cc2ccccc2N1C(=O)CSc1nnc2c(n1)[nH]c1ccc(F)cc12 (centres undefined) | inactive: -4.51% | 
39 | O=C(Nc1ncc2c(n1)-c1ccccc1CC2)c1ccc(F)cc1 |  | inconclusive: 31.6 µM [falling, partial curve, poor fit]
40 | COc1ccccc1/C=C1\S/C(=N/NC(=O)c2cccc(Br)c2)NC1=O |  | inconclusive: 1.41 µM [falling, full curve, poor fit]
41 | CCCCN(CCCC)CCCNC(=O)C12CN(Cc3ccccc3)CC1C(c1cccc([N+](=O)[O-])c1)=NO2 (centres undefined) | inconclusive: -6.88% | 
42 | CCc1nc(SCC(=O)c2cc(C)ccc2C)n[nH]1 | inconclusive: -16.5% | 
43 | C/C(=C\c1ccccc1)C1NC(=O)c2c(sc3c2CCCC3)N1 (centres undefined) | inconclusive: 7.9% | 
44 | CCC(CC)NCCOC(=O)c1ccc([N+](=O)[O-])cc1 | inconclusive: -2.24% | 
45 | Cc1ccnc(NS(=O)(=O)c2ccc(NC(=O)Cc3ccc(F)cc3)cc2)n1 | inactive: -3.75% | 
46 | O=C(COC(=O)Cc1ccc(Cl)c(Cl)c1)Nc1ccc2[nH]c(=O)[nH]c2c1 | inactive: 12.6% | 
47 | Cc1nc2c(sc(=S)n2Cc2ccco2)c(=O)n1CC(=O)Nc1ccc(F)cc1 | inconclusive: 3.51% | 
48 | Cc1cc(C)c2c(NC(N)=S)n[nH]c2n1 | inconclusive: 10.1% | 
49 | COc1ccccc1N(CC(=O)NC1CCCC1)C(=O)c1oc(C(C)(C)C)cc1C |  | inconclusive: 20 µM [falling, partial curve, poor fit]
50 | CNc1nc(Sc2cccc(C(F)(F)F)c2)cc(C(F)(F)F)n1 | inconclusive: 0.0216% | 
51 | Cc1ccccc1-n1c(SCc2c(C)noc2C)nnc1-c1c[nH]c2ccccc12 | inconclusive: -7.53% | 
52 | O=[N+]([O-])c1cccc(/C=C/c2ccccn2)c1 | inconclusive: -18.5% | 
53 | C/C(=N\NC(=S)NCCc1ccccc1)c1ccc(O)cc1O | inconclusive: 1.73% | 
54 | CNC(=O)COC(=O)c1ccccc1NC(=O)c1ccco1 | inconclusive: -20.2% | 

Row | SMILES | activity change, negative = inhibition | Potency
55 | O=C(COc1ccc(F)cc1)N(Cc1cccc(Br)c1)C1CCS(=O)(=O)C1 (centres undefined) | inconclusive: -22% | 
56 | Cc1ccc(C(=O)N/N=C\c2sccc2C)cn1 | inconclusive: -18.5% | 
57 | Cc1cccc(C(=O)Oc2ccccc2/C=N/Nc2ccc([N+](=O)[O-])cc2)c1 | inconclusive: 6.81% | 
58 | CCNC(=O)NC(=O)C(C)Sc1nnc(COc2ccccc2Cl)o1 (centres undefined) | inconclusive: 9.44% | 
59 | O=C(O)c1ccc(N/N=C/c2ccc3c(c2)OCO3)cc1 | inconclusive: 474% | 
60 | COc1ccc(-n2cnnc2SCC(=O)NCc2cccs2)cc1 | inconclusive: 4.55% | 
61 | CC(C)(C)c1ccc(NC(=O)Nc2ccc3ccccc3n2)cc1 | inactive: 1.61% | 
62 | C[C@H]1CN(CCc2ccccc2)C(=O)[C@@H]1CC(=O)NCc1ccccc1 | inactive: 12.5% | 
63 | COc1ccc(N=C2SCC(=O)N2Cc2ccccc2)cc1 |  | inconclusive: 12.6 µM [falling, partial curve, poor fit]
64 | Cc1c(/C(O)=C2\C(=O)C(=O)N(CCN(C)C)C2c2ccccc2)cnn1-c1ccccc1 (centres undefined) |  | inconclusive: 7.94 µM [rising, partial curve, poor fit]
65 | C=CC(=O)NN(C)c1ncc(C(F)(F)F)cc1Cl | inactive: -7.92% | 
66 | Cc1cc(S(=O)(=O)NC(C)C)ccc1OCC(=O)N1CCOCC1 |  | inconclusive: 16.4 µM [rising, single point]
67 | NC(=O)N/N=C/c1c(Sc2nnnn2-c2ccccc2)nc2ccccn2c1=O | inactive: 2.05% | 
68 | CC(=O)c1ccc(C#CC(C)(C)O)s1 | inconclusive: -0.268% | 
69 | Cc1cc(C)c(N=C2SCC(=O)N2Cc2ccco2)c(C)c1 | inconclusive: -0.162% | 
70 | COc1cc2c(c(OC)c1OC)-c1ccc(NC(=O)c3ccc(F)cc3)c(=O)cc1[C@@H](NC(C)=O)CC2 |  | inconclusive: 31.6 µM [cytotoxic, single point]
71 | O=C(Nc1ccc(N2CCCC2)c(Cl)c1)c1ccc(Br)o1 | inactive: -2.55% | 
72 | N#C/C(=C/c1cccs1)c1ccccn1 | inconclusive: 10% | 
73 | CC(=O)c1ccc(N/C=C/C(=O)c2ccc(Br)cc2)cc1 | inconclusive: 13.3% | 
74 | Nc1[nH]c(N=NC(=O)c2ccccc2)c2ccccc12 |  | inconclusive: 4.61 µM [rising, full curve, poor fit]
75 | CSCC[C@H](NC(=O)[C@H](Cc1ccccc1)n1c(=O)[nH]c2ccccc2c1=O)C(=O)NCC1CCC(C(=O)O)CC1 (some centres undefined) | inactive: -21.7% | 
76 | CC(C)NC(=S)NN=C1c2ccccc2-c2ccccc21 | inconclusive: -17.4% | 
77 | Cn1c(=O)[nH]c(=O)c2c1nc(Br)n2CCCc1ccccc1 | inactive: -0.828% | 
78 | CCc1nnc(NC(=O)CSc2sc3c(O)cc(=O)[nH]c3c2C#N)s1 | inconclusive: -14.7% | 
79 | COc1ccc(CCN(C(=O)c2cccc(F)c2)C2CC(=O)N(c3ccccc3)C2=O)cc1 (centres undefined) | inconclusive: 2.01% | 
